# Values of other authors as cited in US20240082217A1, “PROCESS FOR OBTAINING A PURIFIED PS[…] SOLUTION” (PSILO SCIENTIFIC LTD, priority 2020, published 2024).
# Values joined by “and” are separate entries in the source; they are usually repeats but may differ in a detail not shown here. Equal entries are not always repeated. At least one structure is not confirmed: it was looked up by name or label, or the drawing left a doubt.
# Conditions: stated as a property of the alkaloid, freebase form; no measurement described
structure (smiles),measurement,value
CN(C)CCc1c[nH]c2cccc(OP(=O)(O)O)c12 [psilocybin],isoelectric point (pH),4 pH and 4.0 pH
